{
  "source": "patent US20130177661A1",
  "about": "“Saussurea Involucrate Extract, Pharmaceutical Composition and Use for Anti-Fatigue and Anti-Aging” (NATIONAL ILAN UNIVERSITY, priority 2012, published 2013)",
  "assay_type_in_all_cases": "in vivo",
  "key": {"COX-2": {"test_system": "COX-2", "assay": "D-galactose aging mouse model: COX-2 expression level by western blotting", "settings": "30 mg/kg, D-gal-treated mice, control β-actin"}, "cleaved caspase-3": {"test_system": "cleaved caspase-3", "assay": "D-galactose aging mouse model: apoptosis in hippocampus, cleaved caspase-3 by immunohistochemistry (IHC) staining", "settings": "hippocampus of D-gal-treated mice"}, "NF-kappaB": {"test_system": "NF-kappaB", "assay": "D-galactose aging mouse model: NF-kappaB level by western blotting", "settings": "30 mg/kg, D-gal-treated mice"}, "[1]": {"test_system": "D-galactose-treated (aged) mice", "assay": "D-galactose aging mouse model: serum MDA content and antioxidative enzyme (SOD, GPx) activity", "settings": "30 mg/kg/d for 42 consecutive days, versus the D-galactose group"}},
  "note": "For at least one compound, name, drawing or mass did not settle the structure.",
  "data": [
    {"smiles": "C[C@@H]1O[C@@H](OC[C@H]2O[C@@H](Oc3c(-c4ccc(O)c(O)c4)oc4cc(O)cc(O)c4c3=O)[C@H](O)[C@@H](O)[C@@H]2O)[C@H](O)[C@H](O)[C@H]1O", "note": "[Rutin]", "values": [
      {"measurement": "COX-2 expression level", "setting": "COX-2", "result": "remarkably inhibit"},
      {"measurement": "D-galactose-induced apoptosis", "setting": "cleaved caspase-3; 30 mg/kg pretreatment", "result": "inhibited"},
      {"measurement": "D-galactose-induced increase in Caspase-3 (cleaved caspase-3 expression level)", "setting": "cleaved caspase-3; 30 mg/kg, IHC staining, p<0.05", "result": "significantly (p<0.05) inhibits"},
      {"measurement": "NF-kappa B level", "setting": "NF-kappaB", "result": "downregulation"},
      {"measurement": "MDA level in serum", "setting": "[1]", "result": "significantly inhibits"},
      {"measurement": "activity of GSH-Px in serum", "setting": "[1]", "result": "increases"},
      {"measurement": "activity of SOD in serum", "setting": "[1]", "result": "increases"}
    ]}
  ]
}
